Measurements from US20140039042.

Sequences of proteins named here, by UniProt entry; tags and fusion partners are left off. Residues count along the entry.
UniProt P08581, 25-932: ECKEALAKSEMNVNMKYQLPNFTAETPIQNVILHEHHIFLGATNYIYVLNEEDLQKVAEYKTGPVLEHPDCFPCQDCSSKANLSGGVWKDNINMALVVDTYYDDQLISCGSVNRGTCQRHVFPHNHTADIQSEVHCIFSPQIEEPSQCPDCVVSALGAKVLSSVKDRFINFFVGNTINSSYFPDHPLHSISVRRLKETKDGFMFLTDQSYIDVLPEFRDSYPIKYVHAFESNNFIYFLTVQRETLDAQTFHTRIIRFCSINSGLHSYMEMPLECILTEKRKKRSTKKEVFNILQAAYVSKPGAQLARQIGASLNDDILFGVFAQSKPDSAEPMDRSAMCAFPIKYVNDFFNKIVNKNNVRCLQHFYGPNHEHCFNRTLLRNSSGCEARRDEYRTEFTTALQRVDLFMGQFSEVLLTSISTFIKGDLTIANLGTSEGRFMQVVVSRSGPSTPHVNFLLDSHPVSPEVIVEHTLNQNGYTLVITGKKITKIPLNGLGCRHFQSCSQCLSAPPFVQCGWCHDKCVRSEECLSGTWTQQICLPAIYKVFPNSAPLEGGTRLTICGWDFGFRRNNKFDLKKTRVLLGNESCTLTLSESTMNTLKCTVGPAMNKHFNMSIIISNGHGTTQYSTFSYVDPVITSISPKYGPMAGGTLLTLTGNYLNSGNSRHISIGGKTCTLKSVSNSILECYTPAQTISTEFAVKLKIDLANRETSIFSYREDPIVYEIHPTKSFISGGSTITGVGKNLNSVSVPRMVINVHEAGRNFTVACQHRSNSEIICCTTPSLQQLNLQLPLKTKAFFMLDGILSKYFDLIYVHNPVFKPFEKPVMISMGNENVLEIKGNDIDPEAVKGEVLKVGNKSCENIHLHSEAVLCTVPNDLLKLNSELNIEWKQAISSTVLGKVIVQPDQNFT
UniProt P08581, 25-1390: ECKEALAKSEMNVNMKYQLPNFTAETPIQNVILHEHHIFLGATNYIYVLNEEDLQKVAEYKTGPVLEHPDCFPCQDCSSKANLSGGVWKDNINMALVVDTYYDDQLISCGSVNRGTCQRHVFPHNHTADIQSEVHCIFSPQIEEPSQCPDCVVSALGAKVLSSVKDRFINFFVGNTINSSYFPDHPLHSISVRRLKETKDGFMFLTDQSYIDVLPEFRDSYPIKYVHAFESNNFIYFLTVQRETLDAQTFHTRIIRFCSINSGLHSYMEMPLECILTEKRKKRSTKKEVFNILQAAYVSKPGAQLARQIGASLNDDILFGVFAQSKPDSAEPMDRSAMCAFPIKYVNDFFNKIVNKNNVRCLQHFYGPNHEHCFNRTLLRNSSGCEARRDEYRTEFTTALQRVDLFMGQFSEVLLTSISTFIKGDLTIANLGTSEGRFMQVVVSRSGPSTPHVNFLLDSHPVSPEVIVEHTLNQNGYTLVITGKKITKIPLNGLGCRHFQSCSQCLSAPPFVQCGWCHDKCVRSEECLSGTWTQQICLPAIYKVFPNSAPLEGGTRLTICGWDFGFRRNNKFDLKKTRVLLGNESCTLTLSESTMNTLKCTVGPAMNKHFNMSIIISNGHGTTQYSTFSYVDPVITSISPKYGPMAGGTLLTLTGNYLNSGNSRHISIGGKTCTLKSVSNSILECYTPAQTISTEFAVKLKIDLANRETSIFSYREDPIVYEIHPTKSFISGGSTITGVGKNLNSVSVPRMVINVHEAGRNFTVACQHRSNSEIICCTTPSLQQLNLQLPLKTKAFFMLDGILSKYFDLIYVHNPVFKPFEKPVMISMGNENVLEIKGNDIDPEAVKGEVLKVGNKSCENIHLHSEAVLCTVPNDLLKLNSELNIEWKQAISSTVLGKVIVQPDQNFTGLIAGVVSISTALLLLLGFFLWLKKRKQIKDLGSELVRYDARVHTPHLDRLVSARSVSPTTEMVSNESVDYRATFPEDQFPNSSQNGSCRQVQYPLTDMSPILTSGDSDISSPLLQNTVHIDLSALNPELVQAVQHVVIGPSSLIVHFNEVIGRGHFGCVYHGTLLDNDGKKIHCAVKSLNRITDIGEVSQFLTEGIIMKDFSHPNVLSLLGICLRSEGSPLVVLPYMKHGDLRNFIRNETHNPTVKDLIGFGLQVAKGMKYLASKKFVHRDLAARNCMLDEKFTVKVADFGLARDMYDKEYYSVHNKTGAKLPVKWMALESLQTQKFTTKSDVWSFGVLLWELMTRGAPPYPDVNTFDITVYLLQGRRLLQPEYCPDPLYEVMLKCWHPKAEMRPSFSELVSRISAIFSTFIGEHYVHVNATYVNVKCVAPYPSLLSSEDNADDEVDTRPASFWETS
UniProt P08637, 17-208: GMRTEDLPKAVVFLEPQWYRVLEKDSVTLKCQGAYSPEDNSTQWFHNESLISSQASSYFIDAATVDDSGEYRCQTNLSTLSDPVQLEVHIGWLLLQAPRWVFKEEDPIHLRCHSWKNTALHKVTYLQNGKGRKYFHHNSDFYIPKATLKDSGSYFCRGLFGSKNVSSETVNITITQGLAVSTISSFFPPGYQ
UniProt P08637, 17-254: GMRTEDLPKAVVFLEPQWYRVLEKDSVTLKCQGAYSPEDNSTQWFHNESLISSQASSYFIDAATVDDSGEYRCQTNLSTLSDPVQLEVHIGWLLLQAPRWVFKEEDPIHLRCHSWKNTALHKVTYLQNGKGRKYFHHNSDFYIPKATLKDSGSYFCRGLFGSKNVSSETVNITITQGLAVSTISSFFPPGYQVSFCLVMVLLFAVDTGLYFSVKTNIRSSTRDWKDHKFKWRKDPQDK

Legend:
c-Met Fc fusion [1] = target: c-Met Fc fusion (UniProt P08581); test: filter binding; conditions: dot blot, purified recombinant protein, protein details: Fc-His fusion, single-stranded DNA
[2] = target: CD16α (FcγRIIIa) V158 allotype, CD16α-6His (UniProt P08637); test: filter binding; conditions: CLN0020 at 5' retained original affinity, dot blot, allotype not specified, purified recombinant protein, protein details: 6His, single-stranded DNA
[3] = target: CD16α (FcγRIIIa) F158 allotype, CD16α-6His (UniProt P08637); test: filter binding; conditions: dot blot, V158 allotype binding only; purified recombinant protein; protein details: 6His; single-stranded DNA
[4] = target: CD16α F158 on recombinant Jurkat cells (UniProt P08637); test: flow cytometry; conditions: no binding to CD16α-negative Jurkat E6.1; protein on the cell surface; single-stranded DNA
c-Met Fc fusion [5] = target: c-Met Fc fusion (UniProt P08581); test: SELEX; conditions: purified recombinant protein, protein details: Fc-His fusion, single-stranded DNA
[6] = target: CD16α (FcγRIIIa) V158 allotype, CD16α-6His (UniProt P08637); test: EMSA; conditions: purified recombinant protein, protein details: 6His, single-stranded DNA
[7] = tested on: Fc portion (fusion partner control); test: filter binding; conditions: no Fc or His-tag binding, dot blot; purified recombinant protein; single-stranded DNA
[8] = target: c-Met on GTL-16, MNK-45, EBC-1 cells (Homo sapiens) (UniProt P08581); test: flow cytometry; conditions: no binding on Jurkat cells; protein on the cell surface; single-stranded DNA
[9] = decreased c-Met affinity, no linker
[10] = listed as binding specifically to c-Met, did not meet low nM criterion

“CCACTGCGGGGGTCTATACGTGAGGAAGAAGTGGGCAGGTCGAGTGCGTAATGGTACGATTTGGGAAGTGGCTTGGGGTGGG [bsA1]”: binds more weakly (c-Met Fc fusion [1]; [9]).
“CCACTGCGGGGGTCTATACGTGAGGAAGAAGTGGGCAGGTCGAGTGCGTAATGGTACGATTTGGGAAGTGGCTTGGGGTGGG [bsA5]”: binds ([2]; iSp9 PEG(3) spacer between the two parts); binds (c-Met Fc fusion [1]; iSp9 PEG(3) spacer between the two parts, c-Met aptamer at 3' end performed best).
“CCACTGCGGGGGTCTATACGTGAGGAAGAAGTGGGCAGGTCGAGTGCGTAATGGTACGATTTGGGAAGTGGCTTGGGGTGGG [bsA7]”: binds ([2]; iSp18 PEG(6) spacer between the two parts); binds (c-Met Fc fusion [1]; iSp18 PEG(6) spacer between the two parts, c-Met aptamer at 3' end performed best).
“GAGTGCGTAATGGTACGATTTGGGAAGTGGCTTGGGGTGGGCCACTGCGGGGGTCTATACGTGAGGAAGAAGTGGGCAGGTC [bsA2]”: binds more weakly (c-Met Fc fusion [1]; [9]).
“GGAGGGAAAAGTTATCAGGCAGAGGGGAGGGTCGGGTATCGGCGTGTTCGGGGGATCTGCGATTAGTTTTGGAGTACTCGCTCC [CLN0123]”: no binding [3]; binds [4].
“GGAGGGAAAAGTTATCAGGCATCACGTGGTGGGCAAATAACCGGTTGGGGTGGGTCGAGGGATTAGTTTTGGAGTACTCGCTCC [CLN0018]”: no binding [3].
“GGAGGGAAAAGTTATCAGGCCACTGCGGGGGTCTATACGTGAGGAAGAAGTGGGCAGGTCGATTAGTTTTGGAGTACTCGCTCC [CLN0020]”: binds [4].
In the case of “GGAGGGAAAAGTTATCAGGCGAGCGGGGACGAACACATATGGGGAAGTGGCTTGGGGTGGGATTAGTTTTGGAGTACTCGCTCC [CLN0008]”, the selection result (c-Met Fc fusion [5]; excluded from characterisation due to similarity with CLN0004) is reported as “selected”.
“GGAGGGAAAAGTTATCAGGCGAGTGCGTAATGGTACGATTTGGGAAGTGGCTTGGGGTGGGATTAGTTTTGGAGTACTCGCTCC [CLN0004]”: no binding ([6]; single c-Met aptamer control, same pattern as CLN0003, wording ambiguous); no binding [7]; binds [8].
In the case of “GGAGGGAAAAGTTATCAGGCGAGTGCGTAATGGTACGATTTGGGAAGTGGTTTGGGGTGGGATTAGTTTTGGAGTACTCGCTCC [CLN0009]”, the selection result (c-Met Fc fusion [5]; [10]) is reported as “selected”.
In the case of “GGAGGGAAAAGTTATCAGGCGGATACAGCAGAATAAGGGAAGGGGCAGATCGGGGTGGGGATTAGTTTTGGAGTACTCGCTCC [CLN0006]”, the selection result (c-Met Fc fusion [5]; [10]) is reported as “selected”.
“GGAGGGAAAAGTTATCAGGCTGGATGGTAGCTCGGTCGGGGTGGGTGGGTTGGCAAGTCTGATTAGTTTTGGAGTACTCGCTCC [CLN0003]”: no binding ([6]; negative control, no supershift with CD16α-6His); no binding [7]; binds [8].

For some of these results: No signal at the amounts used counts as a negative. For some of these results: The comparison behind a weaker result is the experiment's own reference, which may not be listed here. For some of these results: At least one result comes from cells or an extract, where the contact may be indirect. For some of these results: The exact form of at least one protein or probe is not confirmed.
